According to US12576097B2, “Anti-tumor effective component of Hedyotis diffusa, preparation method therefor and use thereof” (Guangdong New Ear Life Technology Co., Ltd., priority 2020, dated 2026):

Test system: human liver cancer Hep-G2 cells
Experiment: Inhibition rate on human liver cancer Hep-G2 cells (CCK-8)
Assay type: cell-based
Conditions: 3 mg/mL drug solutions, 24 h
Protocol: A cryopreservation tube containing liver cancer Hep-G2 cells was taken out from a liquid nitrogen tank, quickly placed in a water bath at 38-39° C., and continuously shaken to be fully thawed within 1 min. The cryopreservation tube was centrifuged at 800 r/min for 9 min, and sprayed with 75% alcohol on the outside thereof, and then put into a ultra-clean table. The resulting supernatant was sucked and discarded. 1 ml of DMEM complete medium was added, and a mixture of the cells and the DMEM complete medium was blown evenly, and then the cells were transferred to a 25 ml culture dish. 6-8 ml of DMEM complete medium was added, and a mixture of the cells and the DMEM complete medium was gently blown evenly, and put into a constant temperature incubator at 37° C. with 5% CO2.
The old medium in the item 2.1 was sucked out. 2 ml of PBS buffer solution was added, and the cells were washed by gently shaking the culture flask. The PBS buffer solution was sucked out to remove the loose, dead and senescent cells and their metabolic wastes, and the cells were washed for 2-3 times. 2 ml of trypsin was added, and the culture dish was gently shaken for 30 s. After the trypsin was sucked out, the culture dish was put into the incubator for full digestion for 3 min, and 2 ml of fresh DMEM complete culture was added. The cells were gently blown and dispersed into individual cells under a microscope, and then 6-8 ml of fresh DMEM complete medium was added and the cells were incubated in a constant temperature incubator.
2 mL trypsin was added into the cells cultured in the item 2.2 in the logarithmic growth phase and the cells were digested for 30 s. After the trypsin was sucked out, the culture dish was placed into the incubator for full digestion for 3 min, and 2 mL of fresh medium was added. […] 10 μL of the stained cell suspension was added to a cell counting plate, and the number of cells was counted by a fully automatic cell counter. […]
30 mL of DMEM complete medium was accurately measured, 30 μL of DMSO was added, and uniform mixing was conducted to prepare 0.1% DMSO medium. […]

kaempferol-3-O-[2-O-(6-O-E-feruloyl)-β-D-glucopyranosyl]-β-D-galactopyranose
OD value (1st measurement): 2.203 ± 0.027
OD value (2nd measurement): 1.458 ± 0.011
OD value (3rd measurement): 1.945 ± 0.037
